For assay [1], the target named is T1, GST-ELMO2 (amino acids 1–362) (UniProt Q96JJ3).
T1 sequence: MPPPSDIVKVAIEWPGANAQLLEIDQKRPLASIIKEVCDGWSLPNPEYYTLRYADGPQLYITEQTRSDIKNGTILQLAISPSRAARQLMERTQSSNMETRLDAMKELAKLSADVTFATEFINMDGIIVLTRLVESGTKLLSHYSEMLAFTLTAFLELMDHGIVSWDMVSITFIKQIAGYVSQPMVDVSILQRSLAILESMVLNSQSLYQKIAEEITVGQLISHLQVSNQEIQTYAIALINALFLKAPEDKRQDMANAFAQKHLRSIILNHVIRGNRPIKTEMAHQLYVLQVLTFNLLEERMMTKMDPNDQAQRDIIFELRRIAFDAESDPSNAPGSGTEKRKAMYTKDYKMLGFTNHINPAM
Nature of the assay: pull-down; effector pull-down with GST-ELMO2 (amino acids 1–362) as bait from fibroblasts spread on 50K and stimulated with H/0 over a time course; quantitative western blotting; only the target purified.

Chains of the proteins cited; added tags and fusions are not shown.
UniProt P05556: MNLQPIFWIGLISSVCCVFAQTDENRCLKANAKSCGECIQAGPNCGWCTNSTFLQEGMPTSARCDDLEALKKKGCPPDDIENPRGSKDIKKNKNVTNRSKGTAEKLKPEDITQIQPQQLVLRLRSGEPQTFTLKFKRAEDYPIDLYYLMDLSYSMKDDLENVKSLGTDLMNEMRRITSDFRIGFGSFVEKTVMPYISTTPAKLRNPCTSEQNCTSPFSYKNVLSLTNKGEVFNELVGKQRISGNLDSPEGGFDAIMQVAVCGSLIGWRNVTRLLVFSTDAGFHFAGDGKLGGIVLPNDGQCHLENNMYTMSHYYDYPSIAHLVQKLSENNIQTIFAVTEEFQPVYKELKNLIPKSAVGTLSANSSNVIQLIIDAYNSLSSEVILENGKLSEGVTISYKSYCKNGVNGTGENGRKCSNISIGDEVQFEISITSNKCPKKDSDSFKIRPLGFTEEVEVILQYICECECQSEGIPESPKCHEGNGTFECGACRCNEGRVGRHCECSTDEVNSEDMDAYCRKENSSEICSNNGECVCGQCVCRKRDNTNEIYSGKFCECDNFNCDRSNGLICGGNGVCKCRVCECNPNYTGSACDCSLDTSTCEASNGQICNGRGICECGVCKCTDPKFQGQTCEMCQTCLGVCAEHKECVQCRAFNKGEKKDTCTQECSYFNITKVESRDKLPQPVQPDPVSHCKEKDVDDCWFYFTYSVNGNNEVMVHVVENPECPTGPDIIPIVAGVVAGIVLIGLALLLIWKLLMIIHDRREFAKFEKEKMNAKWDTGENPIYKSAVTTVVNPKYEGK
UniProt P84095: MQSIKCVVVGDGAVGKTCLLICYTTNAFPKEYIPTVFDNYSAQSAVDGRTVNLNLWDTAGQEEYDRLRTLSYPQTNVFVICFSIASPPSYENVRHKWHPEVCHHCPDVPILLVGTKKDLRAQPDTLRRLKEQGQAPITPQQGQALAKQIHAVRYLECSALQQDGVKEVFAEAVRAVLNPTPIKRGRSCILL
UniProt Q03135: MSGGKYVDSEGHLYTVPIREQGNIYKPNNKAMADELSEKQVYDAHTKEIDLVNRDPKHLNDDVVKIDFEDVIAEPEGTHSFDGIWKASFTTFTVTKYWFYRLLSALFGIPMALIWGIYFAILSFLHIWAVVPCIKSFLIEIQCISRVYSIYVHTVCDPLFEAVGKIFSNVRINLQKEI

For a further assay, the target named is β1-integrin (UniProt P05556). Put plainly: co-IP; paramagnetic beads coated with 200 μg/ml antibody (12G10: active β1-integrin; mAb13: inactive β1-integrin; OKT9: transferrin receptor) incubated with fibroblasts expressing GFP-RhoG for 20 min at room temperature; complexes stabilised with DTBP membrane-permeable cross-linker; cells lysed by sonication; quantitative western blotting. (In general: A western blot detects proteins with antibodies after separation by electrophoresis.)

Results are given in words; binding and its absence hold for the method and conditions named. In cells and extracts the contact can be indirect. Some binding calls cover weakened binding; strength is not graded here. For part of these data: Tags and fused reporters may be left off the sequences shown.

As for Active RhoG (from UniProt P84095 1-191), the binding result in assay [1] was “binds”.
Turning to GFP-RhoG (from UniProt P84095 1-191), the binding entry in the assay with β1-integrin is reported as “binds”.
On the same count and under the same terms, to caveolin (from UniProt Q03135 1-178) belongs “binds”.
